The supplement of paper PMC3334620
In all, about 33,000 sequences were measured (“E-score (-0.5 to 0.5)”: median about -0.0059, highest 2% from about 0.26 on). The list shows a part of the results.

target: T1, Cin5 (UniProt P40917); assay: PBM E-score (8-mer binding enrichment) (E-score (-0.5 to 0.5)); higher = stronger / more preferred TF binding; conditions: protein concentration: 100 nM; construct: GST-full length
T1 sequence: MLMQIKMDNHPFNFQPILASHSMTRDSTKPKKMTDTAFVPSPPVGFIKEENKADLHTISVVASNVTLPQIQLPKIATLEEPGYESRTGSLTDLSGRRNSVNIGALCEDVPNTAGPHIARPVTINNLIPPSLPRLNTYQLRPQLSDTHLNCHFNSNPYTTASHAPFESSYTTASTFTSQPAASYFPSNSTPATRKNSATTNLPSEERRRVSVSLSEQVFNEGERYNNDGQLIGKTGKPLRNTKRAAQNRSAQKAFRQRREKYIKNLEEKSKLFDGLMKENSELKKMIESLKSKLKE
In short: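 Universal all-10-mer Agilent arrays, double-stranded by primer extension on fresh or once-stripped slides, were probed with about 100-200 nM GST-tagged yeast transcription factors made by PURExpress. Fluorescent anti-GST detected bound protein, and masliner normalised the scans. E-scores from the Universal PBM Analysis Suite were given to each ungapped eight-base word pooled with its reverse complement.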

Sequence	PBM E-score
ACAGAGGC	-0.17
CCAAGGCG	-0.163
AAGATGAC	0.051
CAATCACC	0.00466
GGAAGTGA	0.188
AGATTGAG	0.162
CAAAACGC	0.0996
CGCGCGCC	0.0614
ACTAAATC	0.211
CAGTATAG	0.161
AAAGATGA	0.00284
CACACGGC	-0.13
GCAATTGA	0.0995
AATGAACT	0.0769
TCATCCAA	0.163
CTGTTAGC	-0.112
GCGGGAGA	-0.183
CGTGTTTA	-0.0391
CGCGGACA	0.022
AACGGGGA	-0.0504
GCCAAGGA	-0.199
CGCTTTAC	0.0233
GCCTGCGA	-0.218
GTCTGTGA	0.0584
AGTACTGC	-0.0121

Sequence	PBM E-score
ATGTGCTG	0.171
TCTAACAA	0.00087
TCCCGGCA	-0.157
CCAATCAC	0.00965
CCACCCCC	-0.351
CTTGTATA	0.0725
CAAGAAAG	-0.00671
AGGAACCA	-0.189
CCTTTGCG	0.123
AATTCTAT	-0.11
GGCCCGTA	-0.0747
ACTGAATC	-0.0604
GAGTCGTA	0.00969
GTTGTGTA	0.082
AGCCCTGA	-0.281
AGGAATCA	0.172
ACAGTGTC	-0.121
TGTCAAAA	0.062
ATTTTGGA	0.0917
CACTTCCC	0.0115
AATTGTAT	0.0937
AAAAAAGG	0.079
CTCTAGGA	-0.304
CTGAAATC	0.0664
CTTCACCA	-0.16

33 neighbouring entries from above, for reference:
Sequence	PBM E-score
CTGTTAGC	-0.112
GCGGGAGA	-0.183
CGTGTTTA	-0.0391
CGCGGACA	0.022
AACGGGGA	-0.0504
GCCAAGGA	-0.199
CGCTTTAC	0.0233
GCCTGCGA	-0.218
GTCTGTGA	0.0584
AGTACTGC	-0.0121
ATGTGCTG	0.171
TCTAACAA	0.00087
TCCCGGCA	-0.157
CCAATCAC	0.00965
CCACCCCC	-0.351
CTTGTATA	0.0725
CAAGAAAG	-0.00671
AGGAACCA	-0.189
CCTTTGCG	0.123
AATTCTAT	-0.11
GGCCCGTA	-0.0747
ACTGAATC	-0.0604
GAGTCGTA	0.00969
GTTGTGTA	0.082
AGCCCTGA	-0.281
AGGAATCA	0.172
ACAGTGTC	-0.121
TGTCAAAA	0.062
ATTTTGGA	0.0917
CACTTCCC	0.0115
AATTGTAT	0.0937
AAAAAAGG	0.079
CTCTAGGA	-0.304

(further entries)

Sequence	PBM E-score
ACACTCAG	0.0773
AGGAAATA	0.164
CCGTACGA	-0.0276
CCGGCCGC	-0.244
CCCACGTA	-0.0439
AGTCATGC	-0.102
GAAAATCA	-0.0353
CAGGACAA	0.0897
GATCCGGA	0.00936
ATAGCATC	0.0969
AATTTCGC	0.189
ATACGGCG	0.0741
ATATTTAG	0.137
AGGAATAC	0.037
TGGGGCAA	-0.00192
GCGGTCGA	0.1
CGGGTATC	-0.0389
ATACACAG	0.0336
GGGTTATA	-0.146
CATAAAGC	-0.0627
CGCCAGAA	-0.135
CATTCCAA	0.029
TTAGGAAA	-0.0577
AAGCTCCA	-0.0944
ACCGGCCC	-0.294

Sequence	PBM E-score
CTAGAAGA	-0.0876
GATCGTTA	0.0193
CCAGGCGA	-0.168
ATCAGCTG	0.0759
CTTCCGAA	-0.0661
AGGACACA	0.158
GATGACGA	0.163
TCCTAAAA	-0.341
CACCAGAA	-0.141
TAACCCCA	-0.0196
GCATCGAC	-0.107
CGGCCACC	-0.0965
CCAATGAC	-0.0567
GGAGACGA	0.0975
CCCTTGCA	-0.345
GCCATGAA	0.00141
CATACGCG	0.12
ATGCGGCC	-0.232
GTCAGACA	-0.0591
AATTGCTG	0.251
ATACCAAC	0.205
ACACGGCT	0.00928
ATGAGTCG	-0.00791
GACAGCTA	-0.178
AAACCAAG	0.0342

Sequence	PBM E-score
ATTCTGGG	0.0857
CCCGCGGA	0.208
AAGATACG	-0.00662
CGCATAAG	0.0839
CATACTCC	0.0858
AGTTGCTG	-0.0388
GCTGAAAC	-0.0892
AGACTCGC	-0.228
ACGGGGCA	-0.178
AATGCTGG	0.126
CATATTAC	0.287
AATTACTA	0.212
AATTGCTA	0.156
CTCCTCCC	-0.279
CCTTACGC	0.0689
ACCCCCGT	-0.422
ACAGGTTC	-0.125
CGATACCG	0.0398
AAGTAGGA	-0.0295
CCCATCGA	0.089
CGATATGA	0.0193
GTAAGTGA	0.0922
ACTTGCTA	-0.0171
CATTAAGA	-0.0721
AGCAGCCC	-0.142

Sequence	PBM E-score
ACATAAAG	0.00631
GGGCTCTA	-0.147
TATGCAGA	0.0287
ATGCACAG	-0.0493
CAGTCAAC	-0.109
AAAACAGG	-0.14
AGCCTGAG	-0.216
CAGTTTTC	0.113
AATGTCAA	0.176
AGACAACC	0.124
GGTCGGAA	-0.00206
AGGACGTA	-0.102
ACCAGGTC	-0.0582
AGACGAAC	0.179
CTCTACAC	-0.0485
CATGTGGA	-0.0286
ATCACACC	0.0416
GGGCTCAC	-0.217
GCCACAAA	0.0299
ACGAATCT	0.0397
CAGACCGA	-0.0441
CTTGATCA	0.0602
CGATTCAA	-0.0893
ATCCGGGA	0.0228
GCTCTGAA	-0.223

Sequence	PBM E-score
AGTGTCCG	-0.0514
ATAGTCAC	0.129
AGGATATC	-0.0153
AAGGTCCC	-0.0985
ACGGTAAC	0.163
CGGCGCTA	-0.165
ACCAAGGC	-0.149
CAAACCGG	0.028
CGCAAACG	-0.0563
GCAGATGA	-0.00081
CCTATGTA	0.0303
AGCAGGTA	-0.0341
GTATAGAC	0.0156
AGGGTAAC	-0.0521
CGATGAGA	0.02
ATTAAATA	0.274
ATACAGGC	-0.0273
CCTGCAAC	-0.0227
ATTATCAG	0.119
AGATGTAC	0.08
GGGGGCGA	-0.397
CATGAACG	-0.0517
